Among the data in article PMC7242444 are binding values, retold here.

Protein sequences, listed by entry. Tags and fused reporters are not part of them. Residues count along the entry.
UniProt P10244: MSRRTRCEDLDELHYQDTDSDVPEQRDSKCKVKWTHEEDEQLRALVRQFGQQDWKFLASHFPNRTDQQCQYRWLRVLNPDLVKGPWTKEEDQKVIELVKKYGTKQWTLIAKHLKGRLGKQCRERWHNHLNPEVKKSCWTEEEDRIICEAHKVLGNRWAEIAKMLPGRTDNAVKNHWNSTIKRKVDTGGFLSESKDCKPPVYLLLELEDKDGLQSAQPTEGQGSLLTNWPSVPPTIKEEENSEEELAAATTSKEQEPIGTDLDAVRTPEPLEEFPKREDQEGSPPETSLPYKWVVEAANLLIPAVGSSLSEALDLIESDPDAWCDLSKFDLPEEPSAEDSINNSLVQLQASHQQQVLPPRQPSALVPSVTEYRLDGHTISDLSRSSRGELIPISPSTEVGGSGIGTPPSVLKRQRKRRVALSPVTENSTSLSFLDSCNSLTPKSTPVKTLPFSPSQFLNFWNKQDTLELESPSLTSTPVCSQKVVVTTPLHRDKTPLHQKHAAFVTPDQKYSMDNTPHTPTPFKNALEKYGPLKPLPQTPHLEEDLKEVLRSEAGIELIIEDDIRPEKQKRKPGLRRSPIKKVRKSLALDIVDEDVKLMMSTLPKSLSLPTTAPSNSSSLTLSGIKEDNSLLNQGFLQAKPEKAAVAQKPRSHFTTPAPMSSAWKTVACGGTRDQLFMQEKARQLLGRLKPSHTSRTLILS
UniProt Q5VZL5, residues 33-1548: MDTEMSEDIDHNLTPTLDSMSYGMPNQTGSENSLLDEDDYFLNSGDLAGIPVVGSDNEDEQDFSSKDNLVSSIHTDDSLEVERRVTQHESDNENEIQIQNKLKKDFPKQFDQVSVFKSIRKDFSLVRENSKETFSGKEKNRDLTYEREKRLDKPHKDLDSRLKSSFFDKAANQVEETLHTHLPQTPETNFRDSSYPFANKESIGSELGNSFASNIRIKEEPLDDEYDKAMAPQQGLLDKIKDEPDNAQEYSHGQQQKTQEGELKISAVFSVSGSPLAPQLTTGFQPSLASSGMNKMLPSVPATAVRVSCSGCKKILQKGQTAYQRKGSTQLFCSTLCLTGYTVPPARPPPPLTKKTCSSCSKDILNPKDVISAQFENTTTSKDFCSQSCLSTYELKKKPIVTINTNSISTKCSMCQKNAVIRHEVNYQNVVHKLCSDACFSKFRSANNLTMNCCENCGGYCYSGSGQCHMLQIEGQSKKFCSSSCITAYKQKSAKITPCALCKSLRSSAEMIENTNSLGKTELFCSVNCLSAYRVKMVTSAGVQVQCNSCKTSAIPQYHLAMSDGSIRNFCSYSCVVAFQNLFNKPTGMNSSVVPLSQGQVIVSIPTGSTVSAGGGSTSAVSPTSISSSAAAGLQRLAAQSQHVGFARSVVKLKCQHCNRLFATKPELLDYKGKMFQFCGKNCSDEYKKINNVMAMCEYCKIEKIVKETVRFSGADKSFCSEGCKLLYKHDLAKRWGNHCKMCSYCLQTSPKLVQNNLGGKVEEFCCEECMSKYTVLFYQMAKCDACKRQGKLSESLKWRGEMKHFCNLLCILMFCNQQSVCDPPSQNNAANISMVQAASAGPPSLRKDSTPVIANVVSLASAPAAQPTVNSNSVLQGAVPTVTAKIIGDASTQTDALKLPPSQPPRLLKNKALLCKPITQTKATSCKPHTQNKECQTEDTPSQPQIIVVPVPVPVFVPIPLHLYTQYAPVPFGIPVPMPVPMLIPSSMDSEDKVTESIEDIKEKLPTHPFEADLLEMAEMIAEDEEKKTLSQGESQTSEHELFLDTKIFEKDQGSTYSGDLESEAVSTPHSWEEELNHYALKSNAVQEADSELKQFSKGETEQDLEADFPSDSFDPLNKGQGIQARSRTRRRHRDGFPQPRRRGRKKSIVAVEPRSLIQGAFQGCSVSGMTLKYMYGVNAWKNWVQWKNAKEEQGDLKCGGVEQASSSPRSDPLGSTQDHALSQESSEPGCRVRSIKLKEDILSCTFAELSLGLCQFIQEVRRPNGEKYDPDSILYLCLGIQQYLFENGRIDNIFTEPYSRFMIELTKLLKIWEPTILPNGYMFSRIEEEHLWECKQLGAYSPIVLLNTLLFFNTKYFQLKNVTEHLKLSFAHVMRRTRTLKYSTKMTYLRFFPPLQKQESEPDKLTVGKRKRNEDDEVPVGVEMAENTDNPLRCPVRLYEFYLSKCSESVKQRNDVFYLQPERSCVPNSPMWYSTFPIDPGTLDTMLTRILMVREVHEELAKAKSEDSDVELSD

For assay [1], the target named is GFP-B-MYB (human) (UniProt P10244). The assay can be described thus: affinity purification with mass spectrometry; extracts (ELB buffer, 120 mM NaCl, 0.2% NP-40) of HEK293T cells stably expressing the GFP fusion bait bound to magnetic GFP-trap beads; on-bead trypsin digestion, LC-MS/MS; cells expressing only GFP as control; three independent experiments.
The target of assay [2] is GFP-ZMYM4 (human) (UniProt Q5VZL5). The description is as above.

These are yes or no findings as the source states them, for the method shown. In cells and extracts the contact can be indirect. Here binding means that the protein was enriched with, or labelled near, the bait; the list need not be complete. For some assays here: No binding means not detected with the bait.

B1: P5CS (delta-1-pyrroline-5-carboxylate synthase), endogenous (protein, UniProt P54886 1-795)
chain: MLSQVYRCGFQPFNQHLLPWVKCTTVFRSHCIQPSVIRHVRSWSNIPFITVPLSRTHGKSFAHRSELKHAKRIVVKLGSAVVTRGDECGLALGRLASIVEQVSVLQNQGREMMLVTSGAVAFGKQRLRHEILLSQSVRQALHSGQNQLKEMAIPVLEARACAAAGQSGLMALYEAMFTQYSICAAQILVTNLDFHDEQKRRNLNGTLHELLRMNIVPIVNTNDAVVPPAEPNSDLQGVNVISVKDNDSLAARLAVEMKTDLLIVLSDVEGLFDSPPGSDDAKLIDIFYPGDQQSVTFGTKSRVGMGGMEAKVKAALWALQGGTSVVIANGTHPKVSGHVITDIVEGKKVGTFFSEVKPAGPTVEQQGEMARSGGRMLATLEPEQRAEIIHHLADLLTDQRDEILLANKKDLEEAEGRLAAPLLKRLSLSTSKLNSLAIGLRQIAASSQDSVGRVLRRTRIAKNLELEQVTVPIGVLLVIFESRPDCLPQVAALAIASGNGLLLKGGKEAAHSNRILHLLTQEALSIHGVKEAVQLVNTREEVEDLCRLDKMIDLIIPRGSSQLVRDIQKAAKGIPVMGHSEGICHMYVDSEASVDKVTRLVRDSKCEYPAACNALETLLIHRDLLRTPLFDQIIDMLRVEQVKIHAGPKFASYLTFSPSEVKSLRTEYGDLELCIEVVDNVQDAIDHIHKYGSSHTDVIVTEDENTAEFFLQHVDSACVFWNASTRFSDGYRFGLGAEVGISTSRIHARGPVGLEGLLTTKWLLRGKDHVVSDFSEHGSLKYLHENLPIPQRNTN
As to B1, the binding result in assay [1] is listed as “no binding”.

B2: ZMYM2, endogenous (protein, UniProt Q9UBW7 1-1377)
chain: MDTSSVGGLELTDQTPVLLGSTAMATSLTNVGNSFSGPANPLVSRSNKFQNSSVEDDDDVVFIEPVQPPPPSVPVVADQRTITFTSSKNEELQGNDSKITPSSKELASQKGSVSETIVIDDEEDMETNQGQEKNSSNFIERRPPETKNRTNDVDFSTSSFSRSKVNAGMGNSGITTEPDSEIQIANVTTLETGVSSVNDGQLENTDGRDMNLMITHVTSLQNTNLGDVSNGLQSSNFGVNIQTYTPSLTSQTKTGVGPFNPGRMNVAGDVFQNGESATHHNPDSWISQSASFPRNQKQPGVDSLSPVASLPKQIFQPSVQQQPTKPVKVTCANCKKPLQKGQTAYQRKGSAHLFCSTTCLSSFSHKPAPKKLCVMCKKDITTMKGTIVAQVDSSESFQEFCSTSCLSLYEDKQNPTKGALNKSRCTICGKLTEIRHEVSFKNMTHKLCSDHCFNRYRMANGLIMNCCEQCGEYLPSKGAGNNVLVIDGQQKRFCCQSCVSEYKQVGSHPSFLKEVRDHMQDSFLMQPEKYGKLTTCTGCRTQCRFFDMTQCIGPNGYMEPYCSTACMNSHKTKYAKSQSLGIICHFCKRNSLPQYQATMPDGKLYNFCNSSCVAKFQALSMQSSPNGQFVAPSDIQLKCNYCKNSFCSKPEILEWENKVHQFCSKTCSDDYKKLHCIVTYCEYCQEEKTLHETVNFSGVKRPFCSEGCKLLYKQDFARRLGLRCVTCNYCSQLCKKGATKELDGVVRDFCSEDCCKKFQDWYYKAARCDCCKSQGTLKERVQWRGEMKHFCDQHCLLRFYCQQNEPNMTTQKGPENLHYDQGCQTSRTKMTGSAPPPSPTPNKEMKNKAVLCKPLTMTKATYCKPHMQTKSCQTDDTWRTEYVPVPIPVPVYIPVPMHMYSQNIPVPTTVPVPVPVPVFLPAPLDSSEKIPAAIEELKSKVSSDALDTELLTMTDMMSEDEGKTETTNINSVIIETDIIGSDLLKNSDPETQSSMPDVPYEPDLDIEIDFPRAAEELDMENEFLLPPVFGEEYEEQPRPRSKKKGAKRKAVSGYQSHDDSSDNSECSFPFKYTYGVNAWKHWVKTRQLDEDLLVLDELKSSKSVKLKEDLLSHTTAELNYGLAHFVNEIRRPNGENYAPDSIYYLCLGIQEYLCGSNRKDNIFIDPGYQTFEQELNKILRSWQPSILPDGSIFSRVEEDYLWRIKQLGSHSPVALLNTLFYFNTKYFGLKTVEQHLRLSFGTVFRHWKKNPLTMENKACLRYQVSSLCGTDNEDKITTGKRKHEDDEPVFEQIENTANPSRCPVKMFECYLSKSPQNLNQRMDVFYLQPECSSSTDSPVWYTSTSLDRNTLENMLVRVLLVKDIYDKDNYELDEDTD
In the case of B2, the binding result in assay [2] is recorded as “binds”.
